# Source: the supplement of paper PMC12067093, “Discovery and optimisation of a covalent ligand for TRIM25 and its application to targeted protein ubiquitination” (Chemical Science, 2025)
# The chains behind the UniProt entries cited, without tags or fusion partners. Where a name states a change or a piece, a line headed by the entry shows the natural chain unless it says otherwise.
# UniProt Q9P260: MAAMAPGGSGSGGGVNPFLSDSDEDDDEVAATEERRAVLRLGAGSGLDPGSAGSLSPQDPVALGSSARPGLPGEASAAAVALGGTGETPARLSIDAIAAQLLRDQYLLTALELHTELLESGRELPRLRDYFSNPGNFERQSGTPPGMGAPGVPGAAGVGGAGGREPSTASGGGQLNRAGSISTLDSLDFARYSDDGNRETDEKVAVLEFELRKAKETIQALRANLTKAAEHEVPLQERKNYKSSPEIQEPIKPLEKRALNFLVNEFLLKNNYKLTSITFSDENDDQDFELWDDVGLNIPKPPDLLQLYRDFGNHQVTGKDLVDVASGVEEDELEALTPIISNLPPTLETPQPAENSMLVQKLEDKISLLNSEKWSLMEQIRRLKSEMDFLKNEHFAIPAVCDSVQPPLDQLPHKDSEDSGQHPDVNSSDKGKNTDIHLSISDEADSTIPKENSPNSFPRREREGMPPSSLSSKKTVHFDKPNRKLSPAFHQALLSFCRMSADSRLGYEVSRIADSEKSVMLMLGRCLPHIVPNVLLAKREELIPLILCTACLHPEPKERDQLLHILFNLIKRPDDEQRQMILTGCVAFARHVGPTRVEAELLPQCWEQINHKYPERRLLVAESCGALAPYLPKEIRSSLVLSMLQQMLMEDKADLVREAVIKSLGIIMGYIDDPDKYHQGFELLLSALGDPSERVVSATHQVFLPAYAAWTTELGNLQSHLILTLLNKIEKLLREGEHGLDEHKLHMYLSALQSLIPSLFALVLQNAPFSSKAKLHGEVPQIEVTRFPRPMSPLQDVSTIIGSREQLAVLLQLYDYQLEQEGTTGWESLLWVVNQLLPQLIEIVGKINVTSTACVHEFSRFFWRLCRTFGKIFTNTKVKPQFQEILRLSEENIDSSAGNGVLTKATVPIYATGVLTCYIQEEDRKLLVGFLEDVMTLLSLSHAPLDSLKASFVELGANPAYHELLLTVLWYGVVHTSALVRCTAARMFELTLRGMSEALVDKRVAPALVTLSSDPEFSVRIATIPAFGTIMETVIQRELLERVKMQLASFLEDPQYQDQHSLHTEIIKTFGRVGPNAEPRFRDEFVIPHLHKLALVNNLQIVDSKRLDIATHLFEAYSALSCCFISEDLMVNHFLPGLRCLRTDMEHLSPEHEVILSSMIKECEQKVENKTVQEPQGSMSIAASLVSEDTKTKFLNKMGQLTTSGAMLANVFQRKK
# This is one part of the list.
# Biological target: RELCH_Q9P260_526_CLPHIVPNVLLAK (UniProt Q9P260)
# Assay: probe-labelled cysteine peptide fold change vs DMSO (competition) (log2 fold change); higher = less target engagement (more negative = stronger competition)
# Details: THP-1, incubation time: 4 h
# 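Note: competitive profiling in live THP-1 cells: cysteine peptides tagged with an iodoacetamide desthiobiotin (IA-DTB) probe, intensity after compound treatment relative to DMSO-treated cells.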
compound,measurement,setting,value
Cc1cc(C(=O)N2CCCN(C(=O)CCl)CC2)ccc1-c1ccccc1 [compound 10],probe-labelled cysteine peptide fold change,10 µM,0.06
same,probe-labelled cysteine peptide fold change,50 µM,0.174
